Source: PubChem BioAssay AID588497 (NMMLSC, 2011)
About 780 (0.22%) of roughly 360,000 compounds were called active. The inconclusive results got no clear call from the source; some entries with a clear call stand among them for comparison. Rule as the data show it: active = inhibition above about 35% (passing the limit was not always enough); inconclusive = no clear call, values can overlap the other calls.

Test system: Botulinum neurotoxin type F light chain protease (Clostridium botulinum)
Assay: BoNT/F light chain protease inhibitors, primary screen, biochemical, flow cytometry, MLPCN library (AID 588497); also: plate controls were buffer without enzyme for full effect and enzyme alone for no effect
Details: Multiplex microsphere protease cleavage assay, at 10 µM, stronger effect = higher value

SMILES	inhibition
CCCCCn1c(=O)c(C(=O)OCC)c(Cl)c2ccccc21	inconclusive: -46.9%
COC(=O)c1ccc(OC(=O)CN2C(=O)c3ccccc3C2=O)cc1	inconclusive: -45.2%
CC1CCCC(N2CCN(C(=O)c3ccc([N+](=O)[O-])cc3)CC2)C1 (stereo unspecified)	inconclusive: 43.5%
CCOC(=O)CSC1=NC(=O)/C(=C/c2ccc(Br)cc2)S1	inactive: -4.8%
COc1cccc2c1c(NC(=O)c1cc(C)on1)nn2C	inconclusive: 37.3%
CSc1nc2c(cc1C#N)CCC2	inconclusive: 35.8%
COc1ccc(-c2c(C(F)(F)F)nn(C)c2NC(=O)CSCC(=O)O)cc1	inconclusive: -42%
C[C@@H]1CN([C@H](C)CO)C(=O)c2cccc(NC(=O)Nc3ccc(F)cc3)c2O[C@H]1CN(C)C(=O)Nc1ccc(C(F)(F)F)cc1	inactive: -10.3%
CCCOc1ccccc1C(=O)N(Cc1ccco1)C1CCS(=O)(=O)C1 (stereo unspecified)	inconclusive: 1.2%
CC(C)(C)NC(=O)COC(=O)c1ccccc1Oc1ccccc1	inactive: -4.8%
CCOc1ccc(NC(C)c2cc(Cl)ccc2O)cc1 (stereo unspecified)	inconclusive: -59.6%
N#CCCN1CCCc2cc(N=Nc3ccc(C(F)(F)F)cc3)ccc21	inconclusive: -67.4%
CCOC(=O)c1ccc2c(c1)sc(=NC(=O)c1ccco1)n2CCOC	inactive: -1%
Cn1c(=O)[nH]c(=O)c2c1nc1n2CC(O)CN1c1ccccc1 (stereo unspecified)	active: 36.4%
CCCCC#Cc1ccc(C(=O)NNC(=O)Nc2ccccc2)o1	inconclusive: -19.6%
COC(=O)C(CC(=O)c1ccc(C)cc1)n1cccn1 (stereo unspecified)	inconclusive: 4.2%
CCN(CC)S(=O)(=O)c1ccc(S(=O)(=O)NCC2CCCO2)cc1 (stereo unspecified)	inactive: 25.6%
COc1ccccc1N1CCN(Cc2cccc(Br)c2)CC1	inconclusive: 17%
COc1ccc(NC(=O)CS(=O)(=O)c2ccccc2)cc1	inconclusive: -9.9%
CC(C)(C)c1cc(C(=O)NNC(=O)Nc2ccccc2)n(Cc2ccccc2)n1	inconclusive: 46.4%
CCOC(=O)C1=C(COC(=O)CCc2ccc(CC)cc2)NC(=O)NC1C (stereo unspecified)	inactive: -0.5%
COc1cccc(/C=C2\SC(=O)N(CCC(=O)NC3CCS(=O)(=O)C3)C2=O)c1 (stereo unspecified)	inactive: 2.4%
CSc1nnc(-c2cc3ccccc3cc2O)n1C	inconclusive: -29.1%

SMILES	inhibition
Cc1cc(C)nc(NS(=O)(=O)c2ccc(NC(=O)c3ccccc3[N+](=O)[O-])cc2)n1	inconclusive: -26.9%
CCCCn1c(C)c(C(=O)OCC)c2c(CN3CCCC3)c(O)ccc21	inconclusive: -3.2%
COc1ccc(S(=O)(=O)N2CC(=O)Nc3ccccc32)cc1C	inconclusive: -33.7%
COc1cccc(/C(C#N)=C/c2c(-c3ccc(Cl)cc3)nc3c(C)cccn23)c1	inactive: -6.4%
Cc1cc(-c2nnc3n2N=C(c2ccccc2Br)CS3)n[nH]1	inconclusive: 9.3%
COc1cccc(-n2nnc3c(=O)n(CC(=O)Nc4ccccc4C)cnc32)c1	inactive: 6.5%
CCOc1ccc(CCN2C(=S)N([C@@H](CC(C)C)CN3CCC[C@@H]3CN3C(=S)NC[C@@H]3Cc3ccccc3)C[C@@H]2Cc2ccc(O)cc2)cc1	inactive: -5.6%
Cn1nc(C(F)(F)F)c(-c2ccccc2)c1NC(=O)c1nccnc1C(=O)O	inconclusive: -54.7%
CCN1CCN(CCNC(=O)c2ccc(CS(=O)c3ccc(Br)cc3)o2)CC1 (stereo unspecified)	inactive: -6%
O=C(c1cc(-c2ccc(O)cc2)on1)N1CCN(c2ccc(F)cc2)CC1	inactive: -11.2%
Cc1cc(/C=C(\C#N)C(=O)N2CCOCC2)c(C)n1C1CCCC1	inconclusive: 109%
CCN(CC)CCCNc1nc(N)c([N+](=O)[O-])c(N2CCCCCC2)n1	inconclusive: -15.2%
Cc1ccc2oc(=O)c(/C=C(\O)c3cccs3)nc2c1	inconclusive: -5.9%
COc1cccc(N(CC(=O)N2CCCCCC2)S(C)(=O)=O)c1	inconclusive: -17.3%
COc1ccccc1/C=C/C(=O)N1CCc2cc(OC)c(OC)cc2C1C (stereo unspecified)	inconclusive: -15.7%
C/C(=N/O)c1no[n+]([O-])c1/C(C)=N\O	inconclusive: -14.8%
Nc1ccn(Cc2ccc(F)cc2)n1	inactive: -0.5%
COc1ccccc1N1CCN(C(=O)C2CC2)CC1	inconclusive: -7.1%
O=C(Cc1ccccc1)NCC(=O)N/N=C/c1cccnc1	inconclusive: -25.4%
O=C(c1c[nH]c2ccccc12)C(F)(F)F	inconclusive: -83.5%
NCC(=O)c1cccc2ccc[n+]([O-])c12	inconclusive: 3.6%
Cc1cccc(OCC(=O)NC(=S)Nc2ccc(S(=O)(=O)NC3CCCCC3)cc2)c1	inconclusive: 18.9%
CCOCCCNC(c1ccccc1)c1ccncc1 (stereo unspecified)	inconclusive: -1%

Part of the list above, with bars between the fields:
SMILES | inhibition
Cc1cc(-c2nnc3n2N=C(c2ccccc2Br)CS3)n[nH]1 | inconclusive: 9.3%
COc1cccc(-n2nnc3c(=O)n(CC(=O)Nc4ccccc4C)cnc32)c1 | inactive: 6.5%
CCN(CC)CCCNc1nc(N)c([N+](=O)[O-])c(N2CCCCCC2)n1 | inconclusive: -15.2%
COc1ccccc1N1CCN(C(=O)C2CC2)CC1 | inconclusive: -7.1%
O=C(Cc1ccccc1)NCC(=O)N/N=C/c1cccnc1 | inconclusive: -25.4%
O=C(c1c[nH]c2ccccc12)C(F)(F)F | inconclusive: -83.5%

Retrieved by compound from the entries so far (2):
SMILES	inhibition
CCOc1ccc(NC(C)c2cc(Cl)ccc2O)cc1 (stereo unspecified)	inconclusive: -59.6%
CCOc1ccc(CCN2C(=S)N([C@@H](CC(C)C)CN3CCC[C@@H]3CN3C(=S)NC[C@@H]3Cc3ccccc3)C[C@@H]2Cc2ccc(O)cc2)cc1	inactive: -5.6%

Additional entries follow:

SMILES	inhibition
COc1ccccc1-n1cnnc1SCC(=O)N1CC(=O)Nc2ccccc21	inconclusive: 0%
CCOC(=O)Cc1csc(NC(=O)CSc2cc(Cl)ccc2Cl)n1	inactive: -8.1%
COc1ccc(Cl)cc1CN1C(=O)C(Cc2ccccc2)ON=C1C (stereo unspecified)	inactive: -3.9%
CCN(C(=O)c1cn(C)c(=O)c2cc(OC)c(OC)cc12)c1cc(C)ccc1C	inconclusive: 10.2%
COC(=O)CN(C)C(=O)c1cccc(OC2CCN(S(=O)(=O)N(C)C)CC2)c1	inconclusive: -19.2%
CCCCOc1ccc(C(=O)N2CCN(c3ccc(N4CCOCC4)nn3)CC2)cc1	active: 59.2%
Clc1ccc2c(N3CCOCC3)ccnc2c1	inconclusive: 11.5%
Oc1ccc2c(c1)C1CCCC1(N1CCOCC1)O2 (stereo unspecified)	inactive: 1.4%
Cc1ccc(C)c(NC(=O)CN(C)C(=O)c2cc(C3CC3)nn2-c2ccccc2)c1	inactive: 12.3%
Cc1ccc(NC(=O)C2CCCCC2C(=O)O)cc1C (stereo unspecified)	inconclusive: 50.7%
COCCCNC(=O)Cn1nc(-c2cccc(OC)c2)ccc1=O	inconclusive: 0.2%
CCNc1cc2oc(=O)c(CN3CCOCC3)c(C)c2cc1C	inactive: -8.1%
COc1ccc(NCc2cc(=O)oc3cc(NC(C)=O)ccc23)cc1	inactive: -18.2%
O=C(Nc1cc(Cl)ccc1N1CCOCC1)c1ccc(N2CCCC2=O)cc1	inconclusive: -11.5%
CN(C(=S)Nc1ccc(SC(F)F)cc1)C(c1ccccc1)c1ccccc1	inconclusive: -27%
COc1ccc(CCN(C)C2CCCN(S(=O)(=O)c3ccccc3)C2)cc1OC (stereo unspecified)	inconclusive: -7.2%
CC(=O)NS(=O)(=O)c1ccc(N/C(N)=N/c2nc(C)cc(C)n2)cc1	inconclusive: 25.1%
CCN(Cc1ccccc1)S(=O)(=O)c1csc(C(N)=O)c1	inactive: -7.4%
CC(=O)NCCCC(=O)NNC1CC(=O)N(c2cccc(Cl)c2)C1=O (stereo unspecified)	inconclusive: -52.4%
COc1ccc(CC(=O)N2CCN(c3cccc(Cl)c3)CC2)cc1OC	inconclusive: -9%
Cc1c(C(C)(C)C)s/c(=N/S(=O)(=O)c2ccccc2)n1C	inconclusive: 19.7%
COc1cc(C(C)=O)ccc1OCCCN1CCC(Cc2ccccc2)CC1	inconclusive: -11%
COc1ccc(OCC(=O)OC(C)CN2CCOCC2)cc1 (stereo unspecified)	inconclusive: 10.4%

SMILES	inhibition
CC1=C(C(=O)N2CCCCCC2)CC(CC(=O)NCCc2ccccn2)C(=O)N1CCC1=CCCCC1 (stereo unspecified)	inactive: 4.6%
COc1ccccc1CN1CCN(C(=O)c2ccco2)CC1	inconclusive: 20.5%
Cc1c(/C=N/NC(=O)c2cccs2)c2ccccc2n1Cc1ccccc1Cl	inactive: -1.5%
Cn1c(N)c(C(=O)CSc2nnc(-c3cccs3)n2C2CC2)c(=O)[nH]c1=O	inconclusive: -6.9%
Nc1c(C(=O)N2CCCC2)sc2nc(-c3ccccc3)ccc12	inconclusive: 119%
Cc1cc(C)cc(OCc2ccc(C(=O)NN)o2)c1	inconclusive: 25.9%
CNc1nc(CCN2C(=O)c3ccccc3C2=O)cs1	inconclusive: -5.7%
CCC(=O)Nc1ccc(S(=O)(=O)Nc2cc(C)on2)cc1	inactive: -0.7%
CCN(CC(=O)Nc1ccccc1C(F)(F)F)C(=O)c1cc(S(=O)(=O)N2CCCCCC2)ccc1OC	inconclusive: 1.8%
CCNC(=O)C1CCCN(C(=O)c2cccc(C#N)c2)CC1 (stereo unspecified)	inactive: -1%
CCOC(=O)N1CCN(C(=O)CNC(=O)c2ccc(Br)o2)CC1	inconclusive: -37.8%
Cc1oc2c(O)c(O)ccc2c(=O)c1-c1ccc(Cl)cc1	inconclusive: -21.8%
CCN(CC(=O)Nc1c(F)cccc1F)C(=O)c1ccc2c(c1)S(=O)(=O)N=C1CCCCCN12	inconclusive: 5%
O=C(CCCl)N1c2ccccc2C=Cc2ccccc21	inconclusive: -21.3%
C/C(=N/Nc1ccc([N+](=O)[O-])cc1)c1c[nH]c2ccccc12	inactive: -29.7%
Nc1ccc(NC(=S)Nc2ccccc2)cc1	inconclusive: -10.8%
Cc1cc[n+](CC(=O)Nc2cccc(C)c2)cc1	inconclusive: -4.6%
COc1cccc(NC(=O)Nc2cc(Cl)ccc2C)c1	inactive: -7%
CCN(CC)CCCNc1nc(-n2nc(C)cc2C)nc2sc3c(c12)CC(C)(C)OC3	inconclusive: -177%
CCCCOc1ccc(N=Cc2ccc[nH]2)cc1	inconclusive: 22.7%
NNC(=O)c1c[nH]c2ccc(OCc3ccccc3)cc12	inconclusive: -8.7%
COc1ccc(/C=N/Nc2nc(-c3cccnc3)nc3ccccc23)c(OC)c1	inconclusive: -12.9%
